Assay results: article PMC12139245

By UniProt entry, the sequences of proteins in these tests, tags left out.
UniProt Q99JI1: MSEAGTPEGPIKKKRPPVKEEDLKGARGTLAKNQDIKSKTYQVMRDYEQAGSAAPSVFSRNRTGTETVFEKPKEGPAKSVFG
UniProt P11404: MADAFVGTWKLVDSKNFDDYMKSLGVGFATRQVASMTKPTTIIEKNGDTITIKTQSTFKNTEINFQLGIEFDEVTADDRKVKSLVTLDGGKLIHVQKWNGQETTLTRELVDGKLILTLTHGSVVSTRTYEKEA

Target: MUSTN1-mouse-3×FLAG (musculoskeletal embryonic nuclear protein 1) (mouse) (UniProt Q99JI1)
Experiment: affinity purification with mass spectrometry; IP-MS: lysate of transfected cells on anti-FLAG magnetic beads at 4°C overnight, washed with lysis buffer; checked by silver staining and Western blot; HPLC-MS, search with Proteome Discoverer 2.4

Substance: fatty acid binding protein 3 (FABP3) found by IP-MS (from UniProt P11404 1-133)
- binding: binds

No constants are given. Whether binding was seen depends on the method and setting. Binding seen in cells or lysates may run through a third protein. A yes stands for co-enrichment or nearness to the bait. Other partners may have been found.
